Earlier results as cited in patent US20090270496A1, “ANTIFUNGAL COMPOUNDS” (priority 2007, published 2009).

Columns and labels:
[1] = chronic dosing at 100 to 600 mg/day; cited from earlier work
[2] = human, in vivo; cited from earlier work

SMILES: CCCCc1oc2ccccc2c1C(=O)c1cc(I)c(OCCN(CC)CC)c(I)c1 [Amiodarone, amiodarone]
- mean plasma concentration increase for each 100 mg/day administered [1]: 500 ng/mL
- plasma concentration above which adverse side effects are more common [2]: over 2.5 mg/l
